Measured values published in patent publication US20110143999A1, “FOWLICIDINS AND METHODS OF ITS USE” (priority 2005, published 2011).
Read-outs that look alike come from different tables or passages of the source. Not every detail of the peptide structures is certain; ends, links or a residue may be inferred. Some results were stated once for a whole list of compounds, not compound by compound. Residues, ends and D or L forms follow the SMILES beside them.

Tests used:
[1] = tested on: LPS-induced expression of IL-1β, CCL2/MCP-1 and CCL3/MIP-1a in RAW 264.7 cells; conditions: 100 ng/ml LPS 4 h; for effect on LPS-induced proinflammatory gene expression: peptide 1, 5, 20 μM
[2] = tested on: human erythrocytes; conditions: 200 μM peptide
[3] = tested on: S. aureus ATCC 25923; test: Radial diffusion assay, effect of serum; assay type: cell-based, Staphylococcus aureus; conditions: for effect of serum on antibacterial activity: 0.5 μg/well peptide, 20% or 50% human serum, FIG. 13

Structure (SMILES)	effect on LPS-induced proinflammatory gene expression [1]	lysis of human erythrocytes ([2]; absence of 10% FBS, FIG. 15B)	lysis of human erythrocytes ([2]; presence of 10% FBS, FIG. 15A)	effect of serum on antibacterial activity [3]	antibacterial activity retained in serum ([3]; 1 μg peptide, 50% human or chicken serum, relative to no serum, FIG. 19) [%]	reduction of LPS-induced expression of IL-1β and CCL3/MIP-1a genes ([1]; peptide 10 μM, FIG. 21) [%]
CC[C@H](C)[C@H](NC(=O)[C@@H](NC(=O)[C@@H](NC(=O)[C@@H](NC(=O)[C@@H](NC(=O)[C@H](CCCCN)NC(=O)[C@@H]1CCCN1)C(C)C)[C@@H](C)O)[C@@H](C)CC)[C@@H](C)O)C(=O)N[C@@H](CCC(N)=O)C(=O)NCC(=O)N[C@@H](CO)C(=O)N[C@@H](C)C(=O)N[C@@H](CCCNC(=N)N)C(=O)N[C@@H](Cc1ccccc1)C(=O)O [Fowl-2(19-31)] (H-PKVTITIQGSARF-OH; N-terminus and C-terminus assumed)	no obvious inhibition	essentially no hemolysis	essentially no hemolysis			
CC[C@H](C)[C@H](NC(=O)[C@H](CCCCN)NC(=O)[C@H](CCCNC(=N)N)NC(=O)[C@H](CC(C)C)NC(=O)[C@H](Cc1ccccc1)NC(=O)[C@H](CCCNC(=N)N)NC(=O)CNC(=O)[C@H](Cc1ccccc1)NC(=O)[C@H](CCCNC(=N)N)NC(=O)CNC(=O)[C@H](CCCNC(=N)N)NC(=O)[C@H](CCC(N)=O)NC(=O)[C@@H](NC(=O)[C@@H](N)CC(C)C)C(C)C)C(=O)N[C@@H](CCCNC(=N)N)C(=O)N[C@@H](CCCNC(=N)N)C(=O)N[C@@H](Cc1ccccc1)C(=O)N[C@@H](CCCNC(=N)N)C(=O)N1CCC[C@H]1C(=O)N[C@@H](CCCCN)C(=O)N[C@H](C(=O)N[C@H](C(=O)N[C@H](C(=O)N[C@H](C(=O)N[C@H](C(=O)N[C@@H](CCC(N)=O)C(=O)NCC(=O)N[C@@H](CO)C(=O)N[C@@H](C)C(=O)N[C@@H](CCCNC(=N)N)C(=O)N[C@@H](Cc1ccccc1)C(=O)O)[C@@H](C)CC)[C@@H](C)O)[C@@H](C)CC)[C@@H](C)O)C(C)C [Fowlicidin-2] (H-LVQRGRFGRFLRKIRRFRPKVTITIQGSARF-OH; N-terminus and C-terminus assumed)		100%	80%	did not affect		
CC[C@H](C)[C@H](NC(=O)[C@H](CCCCN)NC(=O)[C@H](CCCNC(=N)N)NC(=O)[C@H](CC(C)C)NC(=O)[C@H](Cc1ccccc1)NC(=O)[C@H](CCCNC(=N)N)NC(=O)CNC(=O)[C@H](Cc1ccccc1)NC(=O)[C@H](CCCNC(=N)N)NC(=O)CNC(=O)[C@H](CCCNC(=N)N)NC(=O)[C@H](CCC(N)=O)NC(=O)[C@@H](NC(=O)[C@@H](N)CC(C)C)C(C)C)C(=O)N[C@@H](CCCNC(=N)N)C(=O)N[C@@H](CCCNC(=N)N)C(=O)N[C@@H](Cc1ccccc1)C(=O)N[C@@H](CCCNC(=N)N)C(=O)O [Fowl-2(1-18)] (H-LVQRGRFGRFLRKIRRFR-OH; N-terminus and C-terminus assumed)	potentiated the binding and neutralization of anionic LPS			inhibited		
CC[C@H](C)[C@H](NC(=O)[C@H](CCCCN)NC(=O)[C@H](CCCNC(=N)N)NC(=O)[C@H](CC(C)C)NC(=O)[C@H](Cc1ccccc1)NC(=O)[C@H](CCCNC(=N)N)NC(=O)CNC(=O)[C@H](Cc1ccccc1)NC(=O)[C@H](CCCNC(=N)N)NC(=O)CNC(=O)[C@H](CCCNC(=N)N)NC(=O)[C@H](CCC(N)=O)NC(=O)[C@@H](NC(=O)[C@@H](N)CC(C)C)C(C)C)C(=O)N[C@@H](CCCNC(=N)N)C(=O)O [Fowl-2(1-15)] (H-LVQRGRFGRFLRKIR-OH; N-terminus and C-terminus assumed)	suppressed LPS-induced inflammatory gene expressions in a dose-dependent manner			inhibited		
CC[C@H](C)[C@H](NC(=O)[C@@H](NC(=O)[C@@H](NC(=O)[C@@H](NC(=O)[C@@H](NC(=O)[C@H](CCCCN)NC(=O)[C@@H]1CCCN1C(=O)[C@H](CCCNC(=N)N)NC(=O)[C@H](Cc1ccccc1)NC(=O)[C@H](CCCNC(=N)N)NC(=O)[C@@H](N)CCCNC(=N)N)C(C)C)[C@@H](C)O)[C@@H](C)CC)[C@@H](C)O)C(=O)N[C@@H](CCC(N)=O)C(=O)NCC(=O)N[C@@H](CO)C(=O)N[C@@H](C)C(=O)N[C@@H](CCCNC(=N)N)C(=O)N[C@@H](Cc1ccccc1)C(=O)O [Fowl-2(15-31)] (H-RRFRPKVTITIQGSARF-OH; N-terminus and C-terminus assumed)	potent, dose-dependent inhibition	30%	lost hemolytic activity	did not affect		
CC[C@H](C)[C@H](NC(=O)[C@H](CCCCN)NC(=O)[C@H](CCCNC(=N)N)NC(=O)[C@H](CC(C)C)NC(=O)[C@H](Cc1ccccc1)NC(=O)[C@H](CCCNC(=N)N)NC(=O)CNC(=O)[C@H](Cc1ccccc1)NC(=O)[C@H](CCCNC(=N)N)NC(=O)CNC(=O)[C@H](CCCNC(=N)N)NC(=O)[C@H](CCC(N)=O)NC(=O)[C@@H](NC(=O)[C@@H](N)CC(C)C)C(C)C)C(=O)O [Fowl-2(1-14)] (H-LVQRGRFGRFLRKI-OH; N-terminus and C-terminus assumed)	suppressed LPS-induced inflammatory gene expressions in a dose-dependent manner			inhibited		
CC[C@H](C)[C@H](NC(=O)CNC(=O)[C@H](C)NC(=O)[C@H](C)NC(=O)[C@@H](NC(=O)[C@@H](NC(=O)[C@H](CC(N)=O)NC(=O)[C@@H](NC(=O)[C@H](C)NC(=O)[C@@H](NC(=O)[C@@H]1CCCN1C(=O)[C@@H](NC(=O)[C@H](CC(C)C)NC(=O)[C@@H]1CCCN1C(=O)[C@H](Cc1c[nH]c2ccccc12)NC(=O)[C@H](Cc1ccccc1)NC(=O)[C@H](CCCNC(=N)N)NC(=O)[C@@H](N)CCCCN)C(C)C)C(C)C)[C@@H](C)CC)[C@@H](C)O)C(C)C)C(=O)N[C@@H](CC(N)=O)C(=O)N[C@@H](CC(C)C)C(=O)N[C@@H](Cc1ccc(O)cc1)C(=O)N[C@@H](CCCCN)C(=O)N[C@@H](C)C(=O)N[C@H](C(=O)N[C@@H](CCCNC(=N)N)C(=O)N[C@@H](CCCNC(=N)N)C(=O)N[C@@H](CCCCN)C(=O)O)[C@@H](C)CC [Fowlicidin-3] (H-KRFWPLVPVAINTVAAGINLYKAIRRK-OH; N-terminus and C-terminus assumed)					> 80	> 95
